5 molecules from article PMC9582199, “Molecular architecture of the glycogen- committed PP1/PTG holoenzyme” (Nature Communications, 2022) can be followed below.

Assay [1] has as its target T1, PTG^70-264 (human) (UniProt Q9UQK1).
T1 sequence: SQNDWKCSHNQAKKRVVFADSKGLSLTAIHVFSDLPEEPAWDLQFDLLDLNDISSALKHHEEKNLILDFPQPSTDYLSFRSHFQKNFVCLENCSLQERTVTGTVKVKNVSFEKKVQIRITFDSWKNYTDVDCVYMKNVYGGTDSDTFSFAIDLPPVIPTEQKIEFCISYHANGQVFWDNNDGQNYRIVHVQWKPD
The experiment in a line: grating-coupled interferometry (GCI); PTG 70-264 immobilised by amine coupling on 4PCH WAVE chip (1000 pg/mm^2); PP1 7-330 injected, 1:2 dilution series from 400 nM; 25 °C; 10 mM Hepes pH 7.2, 150 mM NaCl, 0.005% Tween 20; both purified.

The target of assay [2] is T1, PTG^70-264 (human). Description: crystal structure; co-expressed and co-purified PP1 7-300/PTG 70-264 complex with 5 mM β-cyclodextrin; dehydrated crystals; 2.7 Å in two directions, 3.9 Å in the third; both purified.
Assay [3] concerns the target T1, PTG^70-264 (human). Description: SEC-SAXS; co-purified PTG 70-264/His-PP1 7-330 complex, 4 mg/ml without and 6.5 mg/ml with 5 mM β-cyclodextrin; 50 mM Tris pH 8, 0.5 M NaCl, 10% glycerol, 1 mM DTT; 20 °C; both purified.
For another assay, the target named is PP1^7-330 (GCI analyte). Description: grating-coupled interferometry (GCI); CBM21 aa. 132-264 tested with PP1; both purified.
The target of a further assay is 6xHis-tagged PP1^7-330. The experiment in a line: grating-coupled interferometry (GCI); 6xHis-tagged PP1 7-330 reversibly captured on 4PCP-NTA WAVE chip (3600 or 1600 pg/mm^2); peptides injected, 1:2 dilution series from 300 nM; 25 °C; 10 mM Hepes pH 7.2, 150 mM NaCl, 0.005% Tween 20, 0.2 mg/ml BSA; mass transport binding model; both purified.

No constants are given. Whether binding was seen depends on the method and setting. For some assays here: A result given as binding can be weak or reduced; the word gives no strength. For some assays here: In cells and extracts the contact can be indirect.

For PP1^7-330 (GCI analyte) (enzyme), the binding entry with PTG^70-264 (human) [1] is “binds”.
On to PP1^7-300 (enzyme), for which, in the assay with PTG^70-264 (human) [2], the binding result is “binds”.
Regarding 6xHis-tagged PP1^7-330 (enzyme), the binding result with PTG^70-264 (human) [3] is “binds”.

B1: PTG CBM21 (residues 132-264) (domain or fragment, UniProt Q9UQK1 132-264)
chain: KNLILDFPQPSTDYLSFRSHFQKNFVCLENCSLQERTVTGTVKVKNVSFEKKVQIRITFDSWKNYTDVDCVYMKNVYGGTDSDTFSFAIDLPPVIPTEQKIEFCISYHANGQVFWDNNDGQNYRIVHVQWKPD
Take B1: the binding entry in the assay with PP1^7-330 (GCI analyte) is reported as “no binding”.

B2: PTG peptide 81-132 (peptide, UniProt Q9UQK1 81-132, looked up)
peptide: AKKRVVFADSKGLSLTAIHVFSDLPEEPAWDLQFDLLDLNDISSALKHHEEK
notes: also called peptide 2; source: synthetic peptide, bought: ProteoGenix SAS
With B2, in the assay with 6xHis-tagged PP1^7-330, the binding result is recorded as “binds”.
